# Reference: PubChem BioAssay AID504467 (National Center for Advancing Translational Sciences (NCATS), 2011)
# Screen size: about 330,000 compounds; about 7,700 (2.3%) were called active. The inconclusive results got no clear call from the source; some entries with a clear call stand among them for comparison. Calls follow the shape of the dose curve; as a rule, active = well fitted inhibition curve with a large enough effect; inconclusive = small, poorly fitted or top-dose-only effect, or effect the other way; inactive = flat fitted curve, though single readings scatter. A potency beside an inconclusive call is a rough fit, not a confirmed value.
# Experiment: qHTS screen for small molecules that inhibit ELG1-dependent DNA repair in human embryonic kidney (HEK293T) cells expressing luciferase-tagged ELG1; also: nearly all actives have a fitted effect of over 55% in size
# Conditions: HEK293T ELG1-luciferase reporter, luminescence, 16 h, DNA damage induced by 5-fluorouridine; activity change, negative = inhibition: at 46.1 µM (top of the series)
# Method in brief: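 Step one: seed 2,000 cells per well. Step two: pin-transfer compound or DMSO alongside 5-fluorouridine. Step three: incubate 16 hr, 37 °C, 5% CO2. Step four: add ONE-Glo, wait 30 min, read luminescence.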
# % is scaled to controls: 0 for no effect and ±100 for the full control effect; potency is read from the fitted curve at half-maximal effect.
SMILES,Potency,"activity change, negative = inhibition"
Cc1ccc(C(=O)O/N=C(\N)c2nonc2N)cc1,"inconclusive: 20.6 µM [activator, partial curve]",
CCCCCn1c(=O)[nH]c2cc(C(=O)NCCN3C(C)CCCC3C)ccc2c1=O (configuration not stated),,inactive: -7.71%
COc1ccccc1CNC(=O)C1CCN(S(=O)(=O)c2ccc(-n3cnnn3)cc2)CC1,,inactive: 15.6%
CCc1nnc(NC(=O)C(NS(=O)(=O)c2ccc3c(c2)OCCO3)C(C)C)s1 (configuration not stated),,inactive: -23%
O=C(CCS(=O)(=O)c1cccc2nsnc12)N1CC(=O)N(CCc2ccccc2)C(=O)C1,"inconclusive: 29.1 µM [activator, partial curve, poor fit]",
O=S1(=O)N=C(Nc2nc3c(s2)CCCC3)c2ccccc21,"inconclusive: 3.66 µM [activator, full curve]",
CC(=O)Nc1cccc(C(=O)/C=C/c2ccc(N(C)C)cc2)c1,"inconclusive: 23.1 µM [activator, single point]",
O=C(OCc1ccc(COC(=O)c2cccnc2Cl)cc1)c1cccnc1Cl,,inactive: -1%
O=C(c1cc2ccccc2o1)N1CCN(CCOc2ccccc2)CC1,,inactive: -12%
COc1ccc(NS(=O)(=O)c2cccc(C(=O)N(C)Cc3cccs3)c2)cc1,"inconclusive: 29.1 µM [inhibitor, single point]",
COc1ccc(NC(=O)C(NC(=O)c2ccccc2)C(C)C)cc1 (configuration not stated),"inconclusive: 18.4 µM [activator, single point]",
Cc1nc(NC(=O)c2ccco2)sc1-c1csc(Nc2ccc(Cl)cc2)n1,active: 18.4 µM,
CCCCC1C(=O)N(c2ccccc2)N(c2ccc(O)cc2)C1=O (configuration not stated),"inconclusive: 17.8 µM [inhibitor, partial curve, poor fit]",
Cc1ccc(S(=O)(=O)Nc2ccccc2-c2ccccc2)cc1,"inconclusive: 1.3 µM [inhibitor, partial curve, poor fit]",
Cc1ccc(NC(=O)c2csnn2)c(C)c1,"inconclusive: 10.3 µM [activator, partial curve, poor fit]",
CCc1nc2ccccc2c(C(=O)OCc2nnc(-c3ccccc3)o2)c1C,active: 20.6 µM,
CC(CNC(=O)COC(=O)c1ccco1)c1ccccc1 (configuration not stated),,inactive: 17.4%
Fc1ccccc1CCNc1c2c(nc3ncnn13)CCCC2,,inactive: 8.83%
O=C(NCCSc1ccccc1)c1cncc(Br)c1,"inconclusive: 11.6 µM [activator, partial curve]",
O=C(c1ccco1)N(Cc1ccc2c(c1)OCO2)Cc1cc2cc3c(cc2[nH]c1=O)OCO3,"inconclusive: 25.9 µM [activator, single point]",
CCn1c(SCC(=O)Nc2nc(-c3ccccc3)cs2)nnc1-c1ccccc1,"inconclusive: 35.5 µM [inhibitor, single point]",
COc1ccc(-c2sc3ccc(N4CCOCC4)cc3c2-c2ccc(O)cc2)cc1,,inactive: -4.83%
CN(C)C1=NC[C@H](Cc2ccccc2)N1CCC1CCCC1,,inactive: -10.1%
CC(=O)Cn1c(N2CCC(Cc3ccccc3)CC2)nc2c1c(=O)[nH]c(=O)n2C,"inconclusive: 18.4 µM [inhibitor, partial curve, poor fit]",

SMILES,Potency,"activity change, negative = inhibition"
CCOc1ccc(CC(=O)NCc2cn3c(C)csc3n2)cc1,,inactive: 4.1%
Cc1c(Cl)cccc1N=Cc1ccc([N+](=O)[O-])s1,"inconclusive: 18.4 µM [inhibitor, partial curve]",
Cc1ccc(Nc2nc(N)nc(CCl)n2)cc1,,inactive: -23.4%
CC1CN(c2ccc(Cl)cc2[N+](=O)[O-])CCN1S(C)(=O)=O (configuration not stated),"inconclusive: 23.1 µM [inhibitor, single point]",
c1ccc(-c2nc(N3CCCC3)nc3ccccc23)cc1,,inactive: 2.27%
COc1ccc(/C=N/Nc2nc(Nc3ccccc3)nc(N3CCCC3)n2)cc1[N+](=O)[O-],"inconclusive: 29.1 µM [activator, single point]",
Cc1ccsc1C(=O)Nc1ccc(OCc2ccccc2)cc1,"inconclusive: 6.51 µM [activator, single point]",
Clc1c(Cl)c(Cl)c2n[nH]nc2c1Cl,"inconclusive: 18.3 µM [inhibitor, single point]",
N#C/C(=N\Nc1ccc(S(=O)(=O)N2CCc3ccccc32)cc1)C(N)=S,active: 6.51 µM,
O=C(OCC(=O)N1CCN(c2ccccc2)CC1)c1ccccc1[N+](=O)[O-],"inconclusive: 3.66 µM [activator, partial curve]",
O=C(OCc1csc(-c2ccccc2)n1)c1ccc(O)cc1,"inconclusive: 14.6 µM [activator, partial curve]",
CC1CCc2sc3nc(N4CCN(CCO)CC4)n4ncnc4c3c2C1 (configuration not stated),"inconclusive: 10 µM [activator, partial curve]",
CC(=O)N(C)c1ccc(NC(=O)c2cnn(C)c2)cc1,"inconclusive: 18.4 µM [activator, partial curve, poor fit]",
O=C(COc1cc2oc(=O)cc(-c3ccccc3)c2cc1Cl)NCc1ccccn1,"inconclusive: 29.1 µM [inhibitor, partial curve, poor fit]",
COc1cc(C)nc(N2CCCC(C(=O)NC3CCC(C)CC3)C2)n1 (configuration not stated),"inconclusive: 2.59 µM [activator, full curve]",
CC(C(=O)NC(=O)NC1CCCCC1)N1CCN(c2ccccn2)CC1 (configuration not stated),"inconclusive: 20.6 µM [inhibitor, partial curve, poor fit]",
CN(C)CCNC(=O)c1ccc(CS(=O)(=O)c2c(Cl)cccc2Cl)o1,,inactive: 14.6%
CCOC(=O)/C(C#N)=C/c1ccc(OCC(=O)Nc2ccccc2)c(OC)c1,"inconclusive: 20.6 µM [activator, partial curve]",
COCCN1Cc2cccc(C(=O)Nc3ccc(C)c(C)c3)c2C1=O,,inactive: 10.7%
COc1cc2nc(CN3CCN(S(=O)(=O)c4cc(C)ccc4C)CC3)[nH]c(=O)c2cc1OC,active: 14.6 µM,
CCc1cc(C(=O)NCC(c2cccs2)N2CCOCC2)sc1C (configuration not stated),,inactive: 7.09%
Cc1ccc(NC(=O)/C=C/c2cccc(C(F)(F)F)c2)cc1,,inactive: -6.18%
COc1ccc(S(=O)(=O)n2ccc(C(C)Oc3ccc(-c4ccccc4)c(F)c3)n2)cc1 (configuration not stated),"inconclusive: 8.2 µM [inhibitor, partial curve]",
Cc1cccn2c(=O)c(C=O)c(N3CCN(c4ccc(F)cc4)CC3)nc12,"inconclusive: 25.9 µM [inhibitor, partial curve, poor fit]",

# Structures above with a cyano group:
SMILES,Potency,"activity change, negative = inhibition"
N#C/C(=N\Nc1ccc(S(=O)(=O)N2CCc3ccccc32)cc1)C(N)=S,active: 6.51 µM,
CCOC(=O)/C(C#N)=C/c1ccc(OCC(=O)Nc2ccccc2)c(OC)c1,"inconclusive: 20.6 µM [activator, partial curve]",

# The listing continues:

SMILES,Potency,"activity change, negative = inhibition"
CC1Cc2cc(/C(O)=C3/C(=O)C(=O)N(CC4CCCO4)C3c3ccco3)ccc2O1 (configuration not stated),"inconclusive: 9.2 µM [activator, partial curve]",
CC(C)CC(=O)Nc1ccc(-c2nc3ccccc3c(=O)o2)cc1,"inconclusive: 29.1 µM [activator, single point]",
CCC(=O)Nc1nc2ccc(NC(C)=O)cc2s1,"inconclusive: 23.1 µM [activator, single point]",
CC1CCN(c2ccccc2NC(=O)c2ccc(F)cc2)CC1,,inactive: 2.77%
Cc1cccc2cc(COC(=O)c3cccc([N+](=O)[O-])c3)c(=O)[nH]c12,"inconclusive: 29.1 µM [activator, single point]",
O=C(Nc1cc2c(cc1Cl)OCCCO2)c1ccco1,"inconclusive: 18.4 µM [activator, partial curve]",
Cc1ccc(C(=O)Nc2cccc(-c3ccc(N4CCOCC4)nn3)c2)cc1C,"inconclusive: 29.1 µM [inhibitor, single point]",
Cc1ccc(C(=O)NC(=S)Nc2cccc(NC(=O)c3ccccc3)c2)cc1[N+](=O)[O-],"inconclusive: 20.6 µM [inhibitor, single point]",
Cc1nc2ccc(C(=O)Nc3ccccc3Cl)cc2s1,"inconclusive: 11.2 µM [activator, partial curve, poor fit]",
O=C(Nc1ccc(Cl)c(S(=O)(=O)N2CCOCC2)c1)c1ccc2c(c1)OCO2,active: 6.51 µM,
CCOC(=O)c1sc(NC(=O)CSc2nnc(Cc3ccccc3)o2)c(C#N)c1C,,inactive: -4.71%
CC(C)Cc1ccc(C(C)C(=O)Nc2ccccc2O)cc1 (configuration not stated),active: 5.8 µM,
CCCc1[nH]nc2c1C(c1cn[nH]c1-c1ccc(F)cc1)C(C#N)=C(N)O2 (configuration not stated),,inactive: -3.81%
O=C(CCCSc1nc2ccccc2[nH]1)Nc1ccccc1,"inconclusive: 18.4 µM [inhibitor, single point]",
O=C(Cc1ccc(Br)cc1)NC1CCN(Cc2ccccc2)CC1,"inconclusive: 18.3 µM [inhibitor, single point]",
CCc1ccc(NC(=O)C2CCN(C(=O)[C@@H]3Cc4ccccc4CN3)CC2)cc1,"inconclusive: 20.6 µM [activator, partial curve, poor fit]",
COc1ccccc1N1CCN(/N=C/c2ccc([N+](=O)[O-])cc2)CC1,"inconclusive: 6.51 µM [activator, partial curve]",
C1=Nc2c(NCc3ccccc3)ncnc2Oc2ccccc21,,inactive: -3.4%
Cc1nc2oc(C(=O)c3ccccc3)c(N)c2c2c1COC(C)(C)C2,"inconclusive: 14.6 µM [inhibitor, partial curve]",
Cc1ccc(-c2nc3cc(Cl)ccc3o2)cc1,"inconclusive: 1.46 µM [activator, full curve]",
CSc1cccc(NC(=S)Nc2ccc(F)cc2)c1,,inactive: 17.8%
COC(=O)c1ccc(COc2cccc(OC)c2)o1,"inconclusive: 35.5 µM [activator, single point]",
Cc1ccccc1OCCn1nc(C(=O)O)c2ccccc2c1=O,,inactive: -11.8%
Cc1nccn1CC(=O)N/N=C/c1ccccc1O,"inconclusive: 29.1 µM [inhibitor, single point]",
